According to article PMC6440464 (PeerJ, 2019):
Values joined by “and” are separate entries in the source; they are usually repeats but may differ in a detail not shown here. Equal entries are not always repeated.

Experiment: Method validation: extraction recovery from rat plasma
Details: for Extraction recovery (Rset1/Rset2*100), AV: AV of 6 replicates

O=c1c(O[C@@H]2O[C@H](CO)[C@@H](O)[C@H](O)[C@H]2O)c(-c2ccc(O)c(O)c2)oc2cc(O)cc(O)c12 [IQ, Isoquercitrin]
Extraction recovery (Rset1/Rset2*100), AV (Conc. 48.80 ng/mL): 76.93%
Extraction recovery (Rset1/Rset2*100) (Conc. 48.80 ng/mL, single replicates NO.1-NO.6, listed as Isoquercitrin (IQ)): 74.09% and 69.32% and 82.26% and 71.70% and 85.51% and 78.67%
Extraction recovery (Rset1/Rset2*100), AV (Conc. 244.00 ng/mL): 75.24%
Extraction recovery (Rset1/Rset2*100) (Conc. 244.00 ng/mL, single replicates NO.1-NO.6, listed as Isoquercitrin (IQ)): 69.25% and 81.36% and 76.47% and 84.53% and 75.17% and 64.64%
Extraction recovery (Rset1/Rset2*100), AV (Conc. 976.00 ng/mL): 68.87%
Extraction recovery (Rset1/Rset2*100) (Conc. 976.00 ng/mL, single replicates NO.1-NO.6, listed as Isoquercitrin (IQ)): 74.32% and 72.65% and 68.53% and 80.29% and 57.42% and 60.03%

O=c1c(O)c(-c2ccc(O)c(O)c2)oc2cc(O)cc(O)c12 [Qr, Quercetin]
Extraction recovery (Rset1/Rset2*100), AV (Conc. 65.63 ng/mL): 79.20%
Extraction recovery (Rset1/Rset2*100) (Conc. 65.63 ng/mL, single replicates NO.1-NO.6, listed as Quercetin (Qr)): 82.83% and 80.22% and 77.19% and 73.51% and 79.07% and 82.36%
Extraction recovery (Rset1/Rset2*100), AV (Conc. 525.00 ng/mL): 71.88%
Extraction recovery (Rset1/Rset2*100) (Conc. 525.00 ng/mL, single replicates NO.1-NO.6, listed as Quercetin (Qr)): 81.75% and 73.49% and 74.07% and 72.44% and 62.36% and 67.17%
Extraction recovery (Rset1/Rset2*100), AV (Conc. 8400.00 ng/mL): 73.31%
Extraction recovery (Rset1/Rset2*100) (Conc. 8400.00 ng/mL, single replicates NO.1-NO.6, listed as Quercetin (Qr)): 68.64% and 74.73% and 65.53% and 84.38% and 79.64% and 66.95%

O=C(O)[C@H]1O[C@@H](Oc2c(-c3ccc(O)c(O)c3)oc3cc(O)cc(O)c3c2=O)[C@H](O)[C@@H](O)[C@@H]1O [QG, Quercetin-3-O-β-D-glucuronide]
Extraction recovery (Rset1/Rset2*100), AV (Conc. 100.00 ng/mL): 70.18%
Extraction recovery (Rset1/Rset2*100) (Conc. 100.00 ng/mL, single replicates NO.1-NO.6, listed as Quercetin-3-O-β-D-glucuronide (QG)): 65.43% and 75.16% and 76.07% and 69.65% and 71.01% and 63.74%
Extraction recovery (Rset1/Rset2*100), AV (Conc. 1000.00 ng/mL): 73.51%
Extraction recovery (Rset1/Rset2*100) (Conc. 1000.00 ng/mL, single replicates NO.1-NO.6, listed as Quercetin-3-O-β-D-glucuronide (QG)): 80.35% and 65.11% and 70.35% and 79.40% and 73.26% and 72.59%
Extraction recovery (Rset1/Rset2*100), AV (Conc. 10000.00 ng/mL): 69.48%
Extraction recovery (Rset1/Rset2*100) (Conc. 10000.00 ng/mL, single replicates NO.1-NO.6, listed as Quercetin-3-O-β-D-glucuronide (QG)): 83.72% and 76.94% and 59.83% and 70.93% and 60.34% and 65.10%
